Test: Flavor ingredient evaluation (odor and taste)

Compound: O=C(O)CC(=O)C(=O)O [Oxaloacetic Acid]
- flavor imparted: tartness and a mix between a lemon and a lime
- odor: pleasant citrus type smell
- smallest concentration producing a noticeable flavor: 2 mM
- taste on grilled steak (10 mg instead of table salt): very taste pleasing effect
- beverage flavor (100 mg added to 8 ounces of water): strong flavor between a lemon and a lime
- salad dressing flavor (100 mg in 1 oz. virgin olive oil and 1 oz. apple cider vinegar, vs dressing without): citrusy flavor
- beverage flavor compared to water containing both lemon juice and lime juice (100 mg in 8 ounces of water): superior flavor

From patent US20110064679A1 (priority 2008, published 2011)
